## Primary screen of a compound library

Sequences of proteins named here, by UniProt entry; tags and fusion partners are left off.
UniProt E9BF75, entry or part of it: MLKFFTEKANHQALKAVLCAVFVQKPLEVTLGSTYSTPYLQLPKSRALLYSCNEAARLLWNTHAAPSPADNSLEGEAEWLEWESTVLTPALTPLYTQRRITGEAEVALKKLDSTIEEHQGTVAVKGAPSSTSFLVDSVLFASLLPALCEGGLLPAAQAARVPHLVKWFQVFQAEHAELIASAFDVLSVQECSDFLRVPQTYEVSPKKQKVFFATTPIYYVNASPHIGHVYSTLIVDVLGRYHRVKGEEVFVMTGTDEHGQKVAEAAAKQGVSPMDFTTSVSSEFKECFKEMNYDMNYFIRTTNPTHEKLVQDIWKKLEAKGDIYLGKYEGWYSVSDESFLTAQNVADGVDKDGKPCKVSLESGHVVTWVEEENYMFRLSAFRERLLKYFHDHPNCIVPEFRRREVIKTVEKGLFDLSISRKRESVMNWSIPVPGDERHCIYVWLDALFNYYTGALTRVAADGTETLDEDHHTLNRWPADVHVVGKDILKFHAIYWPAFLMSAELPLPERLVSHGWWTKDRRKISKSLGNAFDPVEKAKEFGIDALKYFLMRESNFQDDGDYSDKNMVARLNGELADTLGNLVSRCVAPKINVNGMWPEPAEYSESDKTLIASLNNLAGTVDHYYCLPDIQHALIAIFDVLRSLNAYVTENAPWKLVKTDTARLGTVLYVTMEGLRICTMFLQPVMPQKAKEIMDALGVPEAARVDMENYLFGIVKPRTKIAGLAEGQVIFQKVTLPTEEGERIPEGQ

Data taken from ChEMBL document CHEMBL3988442, “University of Dundee, Small-Polar-MMV Screening Library” (2021).

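Methionyl-tRNA synthetase (putative), Leishmania donovani (UniProt E9BF75). Primary screen of methionyl-tRNA synthetase; the read-out is not stated. The test concentration is not given. Values are per cent inhibition. Of about 68,000 compounds tested this way, about 24 (0.035%) reached 50% or more in at least one test.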

Results are percentages, as filed.
The controls that fix the scale are not given in the record; negative values are as filed.
The compounds are a random part of those screened.

CC(C)[C@@H](CO)Nc1cc(-c2cn[nH]c2)ncn1 read 5.583%.
Cc1cnc(N2CCC3(CC2)CN(c2ccsc2)C(=O)CO3)nc1 read 9.273%.
CN(c1cccc2ccccc12)S(=O)(=O)c1cc(C(=O)O)cs1 read 4.396%.
Cc1cc(C)n(CC2CN(Cc3ccccn3)CCO2)n1 (centres undefined) read 5.789%.
CN(C)c1ccc(CNCc2ccc(N3CCOCC3)cc2)cn1 read 13.7%.
CNS(=O)(=O)c1cccc(C(C)NCc2nccn2C(C)C)c1 (centres undefined) read 7.619%.
CC(=O)Nc1nc(C(=O)NCc2ccnc(N3CCCC3)c2)cs1 read 12.32%.
CCOCC1CN(c2ccncn2)Cc2cnn(CC3CC3)c21 (centres undefined) read 8.497%.
CNC(=O)Cc1noc(-c2cc3c(s2)CCC(C)C3)n1 (centres undefined) read 15.32%.
CCCS(=O)(=O)N1CCC2(CCC(=O)N(CCc3cccnc3)C2)CC1 read 18.9%.
Cc1nc[nH]c1CN1CCN(C(=O)CCC(F)(F)F)[C@H]2CS(=O)(=O)C[C@H]21 read 16.3%.
CCCc1nc(CN2CCN(C(C)c3nc(C4CC4)no3)CC2)no1 (centres undefined) read 14.75%.
Cc1nn(C)cc1-c1ccnc(N2CCSCC2)n1 read 11.73%.
Cc1noc(C)c1CN(C)C(=O)c1cnc(C2CC2)nc1O read -0.2688%.
Cc1n[nH]c(SCCNC2CCN(c3nc4ccccc4s3)CC2)n1 read 18.55%.
Cc1cnc(N2CCC3(CC(=O)N(Cc4csc(C)n4)C3)C2)nc1 (centres undefined) read 19.88%.
CCCc1nn(Cc2ccc(Br)s2)c(=O)o1 read 5.573%.
COc1ccccc1CNC(=O)CNCCn1cc(C)cn1 read 18.86%.
COc1ccccc1OCC(=O)NS(=O)(=O)c1ccc(Br)s1 read 6.62%.
COCCN(C)C(C(=O)O)c1ccc(C)c(C)c1 (centres undefined) read 13.12%.
CC(=O)N1CCN(CCNC(=O)c2nc3ccccc3c(=O)[nH]2)CC1 read 19.7%.
CCn1c(CN(C)C)nnc1C1CCN(Cc2ccc(Cl)cc2F)CC1 read 9.365%.
COCCc1nc(CSc2ccncc2)n(C)n1 read 12.45%.
CN(Cc1cc(-c2ccncc2)no1)C(=O)[C@@H]1CSCN1C read 15.85%.
CN(c1cccnn1)C1CCN(C(=O)c2ccc3c(c2)COC3)CC1 read 18.22%.
CC(C)c1noc([C@@H]2C[C@H](NS(=O)(=O)Cc3ccccc3)CN2C)n1 read 6.015%.
CNc1nc(CNC(=O)Nc2cccc(CC(F)(F)F)c2)cs1 read 14.29%.
Cc1ccc(CN2C(=O)OCC2CO)c2ccccc12 (centres undefined) read 15.25%.
Cc1cc(N2CCCC(OC(=O)CCN3CCCC3=O)C2)nc(C)n1 (centres undefined) read 4.57%.
Cc1cc(NC(=O)NCc2ccncc2)ccc1OC(C)C read 27.06%.
Cc1c(C(=O)N2CCOCC2)n(C)c2ccc(Cl)cc12 read 13.4%.
CC(C)NC(=O)N1CCN(Cc2ccccn2)CC2(CC(=O)N(C)C2)C1 (centres undefined) read 4.377%.
Cc1noc(C)c1-c1cncc(CC2CCN(C(=O)c3cc[nH]n3)C2)n1 (centres undefined) read 15.1%.
Cc1ccc(OCCSCCn2nc3ccccn3c2=O)cc1 read 20.91%.
CCCN1CCC(Cc2noc(-c3ncccc3C)n2)CC1 read 19.2%.
Cc1cc(CN2CC[C@]3(C[C@@H](OCC(=O)N(C)C)CO3)C2)no1 read 20.73%.
Cc1sc2nc(C(F)(F)F)nc(N3CCCN(C)CC3)c2c1C read 9.441%.
CC(C)(O)CN1CCN(C(=O)c2cc3ccccc3c(=O)[nH]2)CC1 read 16.2%.
COc1ncccc1CN1CCC2(CC1)COCCN2C read 9.783%.
CN1C[C@@H](C(=O)NC2CC2)[C@@]2(COc3ccc(F)cc3C2=O)C1 read -4.062%.
O=C(NCCOc1ncc(Cl)cc1Cl)c1ccncc1F read 16.19%.

Repeated from the top, 4 entries:

{"smiles": "CC(C)[C@@H](CO)Nc1cc(-c2cn[nH]c2)ncn1", "inhibition": 5.583}
{"smiles": "Cc1cnc(N2CCC3(CC2)CN(c2ccsc2)C(=O)CO3)nc1", "inhibition": 9.273}
{"smiles": "CN(c1cccc2ccccc12)S(=O)(=O)c1cc(C(=O)O)cs1", "inhibition": 4.396}
{"smiles": "Cc1cc(C)n(CC2CN(Cc3ccccn3)CCO2)n1", "stereo": "centres undefined", "inhibition": 5.789}